Data on one molecule can be found in patent publication US20100167357A1 (CELLECTIS, published 2010).

Protein sequences, listed by entry. Tags and fused reporters are not part of them. Lines headed by an entry give the natural chain unless they say otherwise; changes in a name come on top.
UniProt P05725: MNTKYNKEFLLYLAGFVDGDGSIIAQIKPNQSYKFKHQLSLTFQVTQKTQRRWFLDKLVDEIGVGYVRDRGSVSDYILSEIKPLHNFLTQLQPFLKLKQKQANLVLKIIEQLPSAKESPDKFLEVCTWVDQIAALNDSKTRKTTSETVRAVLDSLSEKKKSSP

The target of this assay is T1, QAN-B3 (QAN with K7E, F54G, L58M, K96E), His tag removed, co-expressed from pCDFDuet1 (Chlamydomonas reinhardtii (Chlamydomonas smithii)) (UniProt P05725).
T1 sequence: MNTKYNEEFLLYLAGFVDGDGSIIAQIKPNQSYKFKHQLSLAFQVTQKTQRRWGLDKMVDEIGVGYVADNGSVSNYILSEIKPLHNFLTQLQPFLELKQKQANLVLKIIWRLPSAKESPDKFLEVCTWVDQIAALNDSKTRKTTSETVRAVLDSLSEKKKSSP
Kind of assay: co-expression in E. coli, His-tag co-purification (2 bands of about equal amount on SDS-PAGE), mass spectroscopy, analytical ultracentrifugation.

Residue numbers refer to the chain shown, from its start. Numbers in names are those of the source. Results are given in words; binding and its absence hold for the method and conditions named. In cells and extracts the contact can be indirect. Here binding means that the protein was enriched with, or labelled near, the bait; the list need not be complete. Sequences can lack the tags named with a protein.

B1: KTG-A2 (KTG with K7R, E8R, F54W, E61R, K96R, L97F) (enzyme)
chain: T1 sequence with E7R, E8R, Q44K, G54W, M58L, E61R, A68T, N70G, E96R, L97F
notes: Designed monomer; Expressed with a His tag from pET-series plasmid pCLS1211
As for B1, the binding result is listed as “binds”.
